From patent US20090202660A1, “Agents and Methods for Osteogenic Oxysterols Inhibition of Oxidative Stress on Osteogenic Cellular Differentiation” (The Regents of the University of California, priority 2005, published 2009)

What was measured:
[1] = tested on: M2-10B4 marrow stromal cells; assay: Matrix mineralization (45Ca incorporation assay, von Kossa staining); assay type: cell-based, mouse; details: M2 cells pretreated with inhibitor, then 22R+20S oxysterols; 10 days
Experimental: Von Kossa and oil red O staining—Matrix mineralization in cell monolayers was detected by silver nitrate staining as previously described. Oil red O staining for detection of adipocytes was performed as previously described.
^45Ca incorporation assay—Matrix mineralization in cell monolayers was quantified using the ^45Ca incorporation assay as previously described.
After 14 days, mineralization was identified by a von Kossa staining, which appears black. FIG. 3C is a depiction of von Kossa staining of M2 cells exposed to various conditions. […]

osteocalcin mRNA = assay: Northern blotting for osteocalcin mRNA in M2 cells; assay type: cell-based, mouse; details: M2 cells pretreated with inhibitor, then 22R+20S oxysterols; 8 days
Experimental: RNA isolation and Northern blot analysis—Following treatment of cells under appropriate experimental conditions, total RNA was isolated using the RNA isolation kit from Stratagene (La Jolla, Calif., U.S.A.). Total RNA ([…]) was run on a 1% agarose/formaldehyde gel and transferred to Duralon-UV membranes (Strategene, Calif., U.S.A.) and cross-linked with UV light. The membranes were hybridized overnight at 60 degree C. with ^32P-labeled mouse osteocalcin cDNA probe, mouse lipoprotein lipase (LPL), mouse adipocyte protein 2 (aP2) PCR-generated probes, human 28S or 18S rRNA probes obtained from Geneka Biotechnology (Montreal, Quebec, Canada) and Maxim Biotech (San Francisco, Calif., U.S.A.), respectively. The PCR products were generated using primer sets synthesized by Invitrogen (Carlsbad, Calif., U.S.A.) with the following specifications: mouse aP2 gene (accession no. M13261); sense (75-95) 5′-[…]-3′, antisense (362-383) 5′-[…]-3′, generating a PCR product of 309 base pairs. Mouse LPL (accession no. XM—134193); sense (1038-1058) 5′-[…]-3′, antisense (1816-1836) 5′-[…]-3′, generating a PCR product of 799 base pairs. […] The extent of gene induction was determined by densitometry.
After 4 and 8 days, total RNA from duplicate samples was isolated and analyzed for osteocalcin (Osc) and 28S rRNA expression by Northern blotting as described. […]

M2 cells = assay: Oxidative stress (XXO or MM-LDL) inhibition of osteoblastic differentiation of M2 cells; assay type: cell-based, mouse; details: SC-560 20 μM with SS 2.5 μM pretreatment, 48 hours
marrow stromal cells = assay: Markers of osteogenic differentiation in marrow stromal cells (ALP, osteocalcin mRNA, mineral formation); assay type: cell-based, mouse; details: SC-560 at 1-20 μM; NS-398 at 20 μM
Experimental: (A) M2 cells at confluence were pretreated for 4 hours with control vehicle (C) or 10 μM COX-1 inhibitor SC-560 (SC) in osteogenic medium as described earlier. Next, a combination of 22R and 20S oxysterols (RS, 2.5 μM each) were added in the presence or absence of SC as indicated. After 3 days, ALP activity was measured as described earlier. […] (B) M2 cells were treated as described in (A) and after 10 days matrix mineralization in cultures was quantified by a ^45Ca incorporation assay as described earlier. […] (C) M2 cells were pretreated with 20 μM SC for 4 hours, followed by the addition of RS in the presence or absence of SC as described above. After 8 days, total RNA was isolated and analyzed for osteocalcin (Osc) and […] expression by Northern blotting as previously described. […] After 3 days, ALP activity was measured as previously described. […] After 10 days, matrix mineralization in cultures was quantified using a ^45Ca incorporation assay as previously described. […]
The purpose of the study was to identify other osteogenic and anti-adipogenic oxysterols based on the chemical structure of previously identified oxysterols. […] In order to assess osteogenic differentiation of cells, one or more markers of osteogenic differentiation were measured in untreated cells and cells treated with the test oxysterols. […]

[2] = tested on: M2-10B4 marrow stromal cells; assay: Colorimetric alkaline phosphatase (ALP) activity assay on whole cell extracts; details: M2 cells pretreated with inhibitor, then 22R+20S oxysterols; 3 days

COc1ccc(-n2nc(C(F)(F)F)cc2-c2ccc(Cl)cc2)cc1 [SC-560, reference compound]
inhibition of oxysterol-induced mineralization [1]: inhibited
inhibition of oxysterol-induced osteocalcin gene expression (osteocalcin mRNA): inhibited
effect of COX-1 inhibitor on oxysterol protection against XXO and MM-LDL (alkaline phosphatase activity) (M2 cells): no longer protected
inhibition of the osteogenic effects of oxysterol combinations (marrow stromal cells): significantly inhibited
inhibition of oxysterol-induced alkaline phosphatase activity [2]: inhibited
